The target of the test is Flag-Lmo7 (Lim domain only protein 7), full-length (Xenopus laevis) (UniProt B5DE43). Kind of test: co-IP.

Amino acid sequences for entries named in this document (tags omitted).
UniProt P35579: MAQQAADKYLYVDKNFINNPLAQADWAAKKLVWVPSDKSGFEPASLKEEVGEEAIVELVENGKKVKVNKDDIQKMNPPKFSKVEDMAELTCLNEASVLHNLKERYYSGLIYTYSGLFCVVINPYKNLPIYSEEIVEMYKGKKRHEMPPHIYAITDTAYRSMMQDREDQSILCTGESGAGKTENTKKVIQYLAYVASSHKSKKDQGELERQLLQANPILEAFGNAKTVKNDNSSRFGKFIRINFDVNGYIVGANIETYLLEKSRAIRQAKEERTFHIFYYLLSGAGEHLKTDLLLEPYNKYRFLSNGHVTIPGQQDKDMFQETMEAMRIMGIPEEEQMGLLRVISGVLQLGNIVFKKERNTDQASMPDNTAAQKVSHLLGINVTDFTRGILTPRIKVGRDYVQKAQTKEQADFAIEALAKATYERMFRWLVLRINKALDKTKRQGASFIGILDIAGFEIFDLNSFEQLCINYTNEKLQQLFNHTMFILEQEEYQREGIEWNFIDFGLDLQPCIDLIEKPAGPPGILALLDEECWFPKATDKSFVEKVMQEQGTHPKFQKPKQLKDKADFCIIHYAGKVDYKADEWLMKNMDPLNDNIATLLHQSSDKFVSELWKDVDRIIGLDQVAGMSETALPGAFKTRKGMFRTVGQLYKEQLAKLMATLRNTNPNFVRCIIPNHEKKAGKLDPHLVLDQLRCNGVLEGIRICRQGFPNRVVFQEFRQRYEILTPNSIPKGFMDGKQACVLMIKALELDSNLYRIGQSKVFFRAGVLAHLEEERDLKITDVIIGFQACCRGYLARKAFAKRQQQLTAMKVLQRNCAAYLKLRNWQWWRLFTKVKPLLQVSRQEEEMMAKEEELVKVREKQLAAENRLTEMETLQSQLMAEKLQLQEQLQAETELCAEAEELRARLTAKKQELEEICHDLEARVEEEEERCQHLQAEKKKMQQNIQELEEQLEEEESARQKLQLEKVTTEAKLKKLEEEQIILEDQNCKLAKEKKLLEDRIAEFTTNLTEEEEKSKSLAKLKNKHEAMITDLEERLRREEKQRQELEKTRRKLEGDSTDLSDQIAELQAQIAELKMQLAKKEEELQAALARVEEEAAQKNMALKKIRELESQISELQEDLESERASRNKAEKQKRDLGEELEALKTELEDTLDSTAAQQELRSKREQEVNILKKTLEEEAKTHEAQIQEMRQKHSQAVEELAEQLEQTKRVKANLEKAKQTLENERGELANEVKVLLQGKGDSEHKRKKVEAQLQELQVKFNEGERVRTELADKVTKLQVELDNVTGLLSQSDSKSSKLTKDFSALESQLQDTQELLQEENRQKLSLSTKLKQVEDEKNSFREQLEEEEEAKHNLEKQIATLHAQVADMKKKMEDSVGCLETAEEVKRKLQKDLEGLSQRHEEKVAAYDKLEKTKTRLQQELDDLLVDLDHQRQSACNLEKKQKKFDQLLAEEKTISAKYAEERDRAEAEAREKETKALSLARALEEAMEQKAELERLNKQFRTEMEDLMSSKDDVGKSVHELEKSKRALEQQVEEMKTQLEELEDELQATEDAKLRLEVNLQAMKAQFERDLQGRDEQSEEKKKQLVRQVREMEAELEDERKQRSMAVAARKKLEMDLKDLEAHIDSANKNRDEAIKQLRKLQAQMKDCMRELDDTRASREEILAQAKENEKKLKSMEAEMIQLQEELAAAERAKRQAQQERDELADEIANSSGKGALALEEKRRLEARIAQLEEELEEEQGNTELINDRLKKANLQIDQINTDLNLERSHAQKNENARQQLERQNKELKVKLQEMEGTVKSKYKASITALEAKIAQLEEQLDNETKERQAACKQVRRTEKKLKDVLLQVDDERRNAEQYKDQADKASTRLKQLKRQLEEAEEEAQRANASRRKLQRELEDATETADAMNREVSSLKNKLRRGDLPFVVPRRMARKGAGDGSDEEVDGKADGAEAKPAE
UniProt P35580: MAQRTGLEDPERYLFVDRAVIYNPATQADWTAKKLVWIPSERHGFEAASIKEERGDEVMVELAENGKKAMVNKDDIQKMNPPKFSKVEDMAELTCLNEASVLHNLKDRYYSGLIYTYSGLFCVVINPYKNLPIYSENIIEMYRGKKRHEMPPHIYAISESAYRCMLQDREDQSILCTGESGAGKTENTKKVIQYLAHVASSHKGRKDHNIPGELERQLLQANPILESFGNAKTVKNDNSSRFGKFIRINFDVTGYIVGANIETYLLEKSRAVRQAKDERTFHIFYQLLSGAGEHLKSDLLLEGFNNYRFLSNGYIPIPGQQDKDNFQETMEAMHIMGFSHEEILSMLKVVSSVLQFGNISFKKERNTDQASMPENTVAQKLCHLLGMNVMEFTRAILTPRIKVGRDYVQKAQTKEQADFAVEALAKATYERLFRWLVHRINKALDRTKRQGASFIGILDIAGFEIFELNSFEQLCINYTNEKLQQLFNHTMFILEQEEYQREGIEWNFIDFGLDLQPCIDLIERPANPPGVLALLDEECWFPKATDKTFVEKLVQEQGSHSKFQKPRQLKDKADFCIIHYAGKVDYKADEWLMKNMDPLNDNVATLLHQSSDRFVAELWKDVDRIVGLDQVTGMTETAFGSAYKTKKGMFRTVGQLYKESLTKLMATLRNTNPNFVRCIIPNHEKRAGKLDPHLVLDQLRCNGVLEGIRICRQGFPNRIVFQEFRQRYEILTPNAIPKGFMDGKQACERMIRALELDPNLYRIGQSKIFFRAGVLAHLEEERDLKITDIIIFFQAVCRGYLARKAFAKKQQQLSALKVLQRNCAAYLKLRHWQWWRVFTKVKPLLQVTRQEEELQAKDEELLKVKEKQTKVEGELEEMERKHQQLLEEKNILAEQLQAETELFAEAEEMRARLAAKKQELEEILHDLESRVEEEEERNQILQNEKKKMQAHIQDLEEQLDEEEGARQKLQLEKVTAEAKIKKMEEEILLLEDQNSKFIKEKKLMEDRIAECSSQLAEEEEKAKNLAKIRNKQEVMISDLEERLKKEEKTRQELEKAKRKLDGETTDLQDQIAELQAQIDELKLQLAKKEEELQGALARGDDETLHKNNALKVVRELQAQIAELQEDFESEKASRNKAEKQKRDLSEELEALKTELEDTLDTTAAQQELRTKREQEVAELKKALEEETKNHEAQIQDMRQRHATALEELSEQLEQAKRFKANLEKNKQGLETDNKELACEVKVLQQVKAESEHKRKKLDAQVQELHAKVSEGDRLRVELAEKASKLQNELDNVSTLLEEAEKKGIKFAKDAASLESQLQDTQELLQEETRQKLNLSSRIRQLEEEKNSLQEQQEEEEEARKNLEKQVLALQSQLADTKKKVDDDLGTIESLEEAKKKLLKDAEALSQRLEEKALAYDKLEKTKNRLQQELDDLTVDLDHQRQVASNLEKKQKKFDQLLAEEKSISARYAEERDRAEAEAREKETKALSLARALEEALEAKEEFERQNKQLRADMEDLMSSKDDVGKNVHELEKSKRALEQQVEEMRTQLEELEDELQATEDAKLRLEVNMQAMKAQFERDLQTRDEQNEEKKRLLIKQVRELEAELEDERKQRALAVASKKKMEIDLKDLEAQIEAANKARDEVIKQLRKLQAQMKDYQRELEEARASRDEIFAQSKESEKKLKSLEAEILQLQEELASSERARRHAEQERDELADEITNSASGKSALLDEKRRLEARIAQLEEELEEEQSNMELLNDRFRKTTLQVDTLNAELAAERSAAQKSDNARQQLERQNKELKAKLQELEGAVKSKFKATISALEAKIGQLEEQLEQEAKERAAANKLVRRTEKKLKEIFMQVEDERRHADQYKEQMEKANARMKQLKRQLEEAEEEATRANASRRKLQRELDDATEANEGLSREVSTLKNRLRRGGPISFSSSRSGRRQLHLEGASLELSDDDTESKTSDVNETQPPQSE

Results are given in words; binding and its absence hold for the method and conditions named. In cells and extracts the contact can be indirect. A result given as binding can be weak or reduced; the word gives no strength.

In the case of “Non-muscle myosin II heavy chain A (NMIIA), endogenous (from UniProt P35579 1-1960)”, the binding entry is “binds”.
“Non-muscle myosin II heavy chain B (NMIIB), endogenous (from UniProt P35580 1-1976)”: the binding result is recorded as “binds”.

The record behind these values is publication doi:10.1101/2021.05.12.443820.
